Test results taken from paper PMC9951978, “Comparative Study of Different H2S Donors as Vasodilators and Attenuators of Superoxide-Induced Endothelial Damage” (Antioxidants, 2023).

Test: H2S release in human serum (dansylazide method)
Assay type: in vitro ADME
Conditions: 37 °C, 200 µM

Compound | % H2S mol/mol ± SE (1 h) | % H2S mol/mol ± SE (4 h) | % H2S mol/mol ± SE (24 h)
C=CCSCC(NC(C)=O)C(=O)O (stereo not drawn) [Compound 1] | 0.4 ± 0.1 % mol/mol | 1.5 ± 0.1 % mol/mol | 3.9 ± 0.9 % mol/mol
C=CCSSCCC(=O)O [Compound 3] | 1.5 ± 0.2 % mol/mol | 8.2 ± 0.3 % mol/mol | 23 ± 2 % mol/mol
C=CCSSCCC(=O)OCC [Compound 4] | 5.8 ± 0.2 % mol/mol | 10 ± 1 % mol/mol | 24.2 ± 0.9 % mol/mol
C=CCSSCC(NC(C)=O)C(=O)O (stereo not drawn) [Compound 5] | 2.7 ± 0.2 % mol/mol | 11 ± 2 % mol/mol | 21 ± 1 % mol/mol
O=C(O)CCC(=O)NSC(=O)c1ccccc1 [Compound 7] | 0.3 ± 0.2 % mol/mol | 1.4 ± 0.2 % mol/mol | 5 ± 1 % mol/mol
CC(=O)NSC(=O)c1ccccc1 [Compound 8] | 16 ± 1 % mol/mol | 25.8 ± 0.4 % mol/mol | 47 ± 1 % mol/mol
O=C(O)c1ccc(-c2ssc(=S)c2-c2ccccc2)cc1 [Compound 9] | 0.4 ± 0.1 % mol/mol | 1.7 ± 0.6 % mol/mol | 4.4 ± 0.9 % mol/mol
COC(=O)c1ccc(-c2ssc(=S)c2-c2ccccc2)cc1 [Compound 10] | 1.8 ± 0.3 % mol/mol | 7.5 ± 0.6 % mol/mol | 12.0 ± 0.9 % mol/mol
O=C(O)c1ccc(-c2cssc2=S)cc1 [Compound 11] | 0.4 ± 0.4 % mol/mol | 4 ± 1 % mol/mol | 33 ± 4 % mol/mol
CCOC(=O)c1ccc(-c2cssc2=S)cc1 [Compound 12] | 17 ± 8 % mol/mol | 63 ± 30 % mol/mol | 146 ± 34 % mol/mol
O=C(O)COc1ccc(-c2cc(=S)ss2)cc1 [Compound 13] | 0 % mol/mol | 0.7 ± 0.2 % mol/mol | 2.4 ± 0.5 % mol/mol
CCOC(=O)COc1ccc(-c2cc(=S)ss2)cc1 [Compound 14] | 0 % mol/mol | 0.5 ± 0.3 % mol/mol | 1.8 ± 0.6 % mol/mol
O=C(O)c1csc(=S)s1 [Compound 15] | 0.2 ± 0.4 % mol/mol | 1.3 ± 0.2 % mol/mol | 2.8 ± 0.5 % mol/mol
COC(=O)c1csc(=S)s1 [Compound 16] | 0.4 ± 0.2 % mol/mol | 1.7 ± 0.5 % mol/mol | 2.5 ± 0.9 % mol/mol
NC(=S)c1ccc(C(=O)O)cc1 [Compound 17] | 0.2 ± 0.2 % mol/mol | 1.0 ± 0.3 % mol/mol | 6 ± 1 % mol/mol
COC(=O)c1ccc(C(N)=S)cc1 [Compound 18] | 1.4 ± 0.4 % mol/mol | 11.0 ± 0.3 % mol/mol | 44 ± 2 % mol/mol
